Data published in article PMC4848862.
These are yes or no findings as the source states them, for the method shown. In cells and extracts the contact can be indirect. Some results given as binding are weak or reduced against the parent protein; the word gives no strength.

Amino acid sequences for entries named in this document (tags omitted).
UniProt P49950: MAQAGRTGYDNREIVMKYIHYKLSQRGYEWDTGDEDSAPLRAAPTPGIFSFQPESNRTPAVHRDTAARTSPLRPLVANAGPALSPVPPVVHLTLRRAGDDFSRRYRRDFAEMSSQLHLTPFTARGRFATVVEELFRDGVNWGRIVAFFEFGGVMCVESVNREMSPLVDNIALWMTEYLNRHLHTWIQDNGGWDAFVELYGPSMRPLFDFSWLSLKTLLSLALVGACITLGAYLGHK
UniProt Q91XJ1: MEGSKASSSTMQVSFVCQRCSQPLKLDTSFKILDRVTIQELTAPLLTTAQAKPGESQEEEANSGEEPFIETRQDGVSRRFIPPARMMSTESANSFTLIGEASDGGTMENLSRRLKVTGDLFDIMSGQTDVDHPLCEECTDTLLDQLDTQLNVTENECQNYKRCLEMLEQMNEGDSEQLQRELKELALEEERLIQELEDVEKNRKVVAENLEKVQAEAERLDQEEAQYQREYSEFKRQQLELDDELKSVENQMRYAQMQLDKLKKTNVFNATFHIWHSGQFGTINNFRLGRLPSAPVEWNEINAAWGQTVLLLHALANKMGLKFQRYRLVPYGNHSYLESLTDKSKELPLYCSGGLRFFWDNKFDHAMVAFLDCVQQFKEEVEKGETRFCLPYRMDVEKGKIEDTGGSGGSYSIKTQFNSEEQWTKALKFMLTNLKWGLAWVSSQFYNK

Biological target: B cell lymphoma 2 (Bcl-2) protein (rat (endogenous in rat heart)) (UniProt P49950)
Experiment: co-IP; whole heart lysate of control, diabetic and diabetic + trimetazidine rats, precleared with protein A/G sepharose, incubated overnight at 4 °C with the indicated antibodies, beads washed five times, immunoblot; which protein was precipitated is not told

binding: binds
Substance: Beclin 1 (from UniProt Q91XJ1 1-448)
